Results are given in words; binding and its absence hold for the method and conditions named. Some binding calls cover weakened binding; strength is not graded here.
Experiments:
[1] = biological target: Cynomolgus CD47-His (cynomolgus); assay: ELISA on coated cynomolgus CD47-His, anti-human IgG HRP, OD450
[2] = biological target: Cynomolgus CD47-His (cynomolgus); assay: ELISA, cynomolgus CD47-His coated

binding [1]	binding [2]	Binder
binds	binds	Hu34-39-PE (antibody, human IgG4, V domains shown) VH: QVQLQESGPGLVKPSQTLSLTCKASGYTFTNYWITWVKQRPGQGLEWIGDITPGRGETNYNQKFKGRVTLTVDISASTAYMELSSLRSEDTAVYYCSRWGLRRGDYWGQGTSVTVSS VL: EIVLTQSPGTLSLSPGERATLSCRASSSVSSSYLNWYQQKSGASPKLWIYSTSNLASGVPGRFSGSGSGTSYSLTISSVEAEDAATYYCQQYSGYPLTFGAGTKLEVK
binds	binds	Hu26T-31-PE (antibody, human IgG4, V domains shown) VH: QVQLVQSGAEVKKPGASVKVSCKASGYTFTDYYMNWVRQAPGQGLEWIGRIYPGSGLTYYNAKFKGRATVTADKSTSTVYMELSSLRSEDTAVYYCARTSYGSSFPHVWGQGTTVTVSS VL: DIQMTQSPSSLSASVGDRVTITCKSSQSLLNVNDQKNYLAWYQQKPGKAPKLLIYFASTRESGVPSRFSGSGSGTDFTLTISSLQPEDFATYYCQQHYSTPLTFGQGTKLEIK
binds	binds	AB6.12-IgG4P (antibody, V domains shown) VH: QMQLVQSGAEVKKTGSSVKVSCKASGFNIKDYYLHWVRQAPGQALEWMGWIDPDQGDTEYAQKFQDRVTITRDRSMSTAYMELSSLRSEDTAMYYCNAAYGSSSYPMDYWGQGTTVTVSS VL: NIQMTQSPSAMSASVGDRVTITCKASQDIHRYLSWFQQKPGKVPKHLIYRANRLVSGVPSRFSGSGSGTEFTLTISSLQPEDFATYYCLQYDEFPYTFGGGTKVEIKR
binds	binds	Hu58A-14-PE (antibody, human IgG4, V domains shown) VH: EVQLLESGGGLVQPGGSLRLSCAASGFIFSRFGMAWVRQTPDKRLEWVATISSGGSYTYYPDSVKGRLTISRDNAKTTLYLQMRSLKSEDTAMYYCARQGLLDYLYALDYWGQGTAVTVSS VL: DIQMTQSPSSVSASIGDRVTITCKASQDINSFLAWFQQKPGKSPRPLIYRAYRLVDGVPSRFSGVGSGQDYSLTISSLDYEDLGIYYCQQYVEFPPTFGAGTMLELK

— patent US20220119520A1
